Assay results: US20050203013A1, “Methods for inhibiting vascular permeability” (priority 2002, published 2005)

Tested on: A2058 melanoma and U87 glioblastoma tumors
Assay: Tumor vessel density by immunohistochemical staining (SMA, PCNA, CD31)
Type: in vivo, mice
Settings: for vessel density (SMA, PCNA or CD31 staining): A2058 melanoma or U87 glioblastoma, 3 days (TNP-470 forms) or 5 days (angiostatin); for microvessel density (CD31 staining): U87 glioblastoma, ± standard error

Compound | vessel density (SMA, PCNA or CD31 staining) | microvessel density (CD31 staining)
CO[C@@H]1[C@H](OC(=O)NC(=O)CCl)CC[C@]2(CO2)[C@H]1[C@@]1(C)O[C@@H]1CC=C(C)C [TNP-470] | no significant difference | 108±24 microvessels per square mm
angiostatin | no significant difference | 105±15 microvessels per square mm
